We go through one molecule from paper PMC10256737.

This assay deals with T1, Capping actin protein, gelsolin-like (CAPG) (human (endogenous in THP-1)) (UniProt P40121).
T1 sequence: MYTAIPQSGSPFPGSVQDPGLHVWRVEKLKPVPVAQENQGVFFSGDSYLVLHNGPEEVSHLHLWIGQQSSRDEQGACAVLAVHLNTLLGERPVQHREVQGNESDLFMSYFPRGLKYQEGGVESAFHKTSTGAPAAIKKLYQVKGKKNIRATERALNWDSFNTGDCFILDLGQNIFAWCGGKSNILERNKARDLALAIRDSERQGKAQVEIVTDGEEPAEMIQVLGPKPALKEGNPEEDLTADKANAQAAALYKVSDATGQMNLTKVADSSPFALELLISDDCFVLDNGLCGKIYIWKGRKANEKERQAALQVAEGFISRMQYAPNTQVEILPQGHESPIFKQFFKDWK
The assay can be described thus: co-IP; co-IP of CAPG with RPL4, ZFP91, CCAR2 (Fig. 3c); cells, antibodies and direction not told in the text shown.

No constants are given. Whether binding was seen depends on the method and setting. Binding seen in cells or lysates may run through a third protein. Some results given as binding are weak or reduced against the parent protein; the word gives no strength.

B1: ZFP91 (protein, UniProt Q96JP5 1-570)
chain: MPGETEEPRPPEQQDQEGGEAAKAAPEEPQQRPPEAVAAAPAGTTSSRVLRGGRDRGRAAAAAAAAAVSRRRKAEYPRRRRSSPSARPPDVPGQQPQAAKSPSPVQGKKSPRLLCIEKVTTDKDPKEEKEEEDDSALPQEVSIAASRPSRGWRSSRTSVSRHRDTENTRSSRSKTGSLQLICKSEPNTDQLDYDVGEEHQSPGGISSEEEEEEEEEMLISEEEIPFKDDPRDETYKPHLERETPKPRRKSGKVKEEKEKKEIKVEVEVEVKEEENEIREDEEPPRKRGRRRKDDKSPRLPKRRKKPPIQYVRCEMEGCGTVLAHPRYLQHHIKYQHLLKKKYVCPHPSCGRLFRLQKQLLRHAKHHTDQRDYICEYCARAFKSSHNLAVHRMIHTGEKPLQCEICGFTCRQKASLNWHMKKHDADSFYQFSCNICGKKFEKKDSVVAHKAKSHPEVLIAEALAANAGALITSTDILGTNPESLTQPSDGQGLPLLPEPLGNSTSGECLLLEAEGMSKSYCSGTERVSLMADGKIFVGSGSSGGTEGLVMNSDILGATTEVLIEDSDSAGP
For B1, the binding result is on record as “binds”.
